Assay results reported in patent US20160130324A1.
These are yes or no findings as the source states them, for the method shown. Some binding calls cover weakened binding; strength is not graded here.

Protein sequences, listed by entry. Tags and fused reporters are not part of them. Lines headed by an entry give the natural chain unless they say otherwise; changes in a name come on top.
UniProt P02745: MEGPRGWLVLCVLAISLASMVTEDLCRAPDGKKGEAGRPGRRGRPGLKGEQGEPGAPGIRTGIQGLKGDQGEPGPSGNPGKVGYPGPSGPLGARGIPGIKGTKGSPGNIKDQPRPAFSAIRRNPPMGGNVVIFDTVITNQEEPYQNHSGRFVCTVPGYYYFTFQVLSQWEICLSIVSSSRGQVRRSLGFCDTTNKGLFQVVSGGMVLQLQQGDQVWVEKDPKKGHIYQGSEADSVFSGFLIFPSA

Target: C1q (UniProt P02745)
Experiment: C1q binding ELISA: protein coated on the plate and titrated, 2 µg/mL C1q added, anti-C1q-HRP, OD450

B1: recombinant C1-INH (protein, UniProt P05155 23-500, looked up)
chain: NPNATSSSSQDPESLQDRGEGKVATTVISKMLFVEPILEVSSLPTTNSTTNSATKITANTTDEPTTQPTTEPTTQPTIQPTQPTTQLPTDSPTQPTTGSFCPGPVTLCSDLESHSTEAVLGDALVDFSLKLYHAFSAMKKVETNMAFSPFSIASLLTQVLLGAGENTKTNLESILSYPKDFTCVHQALKGFTTKGVTSVSQIFHSPDLAIRDTFVNASRTLYSSSPRVLSNNSDANLELINTWVAKNTNNKISRLLDSLPSDTRLVLLNAIYLSAKWKTTFDPKKTRMEPFHFKNSVIKVPMMNSKKYPVAHFIDQTLKAKVGQLQLSHNLSLVILVPQNLKHRLEDMEQALSPSVFKAIMEKLEMSKFQPTLLTLPRIKVTTSQDMLSIMEKLEFFDFSYDLNLCGLTEDPDLQVSAMQHQTVLELTETGVEAAAASAISVARTLLVFEVQQPFLFVLWDQQHKFPVFMGRVYDPRA
- binding: binds
